Results of single-concentration screens

From ChEMBL document CHEMBL3988442, “University of Dundee, Small-Polar-MMV Screening Library” (2021).

Mtb glucose medium: 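Whole-cell growth test on Mycobacterium tuberculosis, read after 3 days in glucose-containing 7H9 medium; the read-out is not stated. Compounds at 50 µM. Direction is inferred from retests: higher values go with more growth inhibition. About 69,000 compounds were tested under these conditions; 1.1% (about 760) showed 50% or more at least once.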
Mtb cholesterol medium: 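Growth of Mycobacterium tuberculosis over 4 days (cholesterol / DPPC medium with tyloxapol); the read-out is not stated. Tested at 50 µM. Direction is inferred from retests: higher values go with more growth inhibition. About 69,000 compounds were tested under these conditions; 0.54% (about 370) showed 50% or more at least once.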

Results are given as percent effect. The record does not define 0% and 100%; most values in the screen are far below 50% and negative numbers occur (in some assays of this library far below -100). The compounds are a random part of those screened. Two or more numbers in one place are separate tests of the same structure; such repeats can differ widely.

Compound	Mtb glucose medium	Mtb cholesterol medium
CC(C)OCCC(=O)Nc1cc(C(=O)N(C)C(C)C)ccc1Cl	-12.61	-32.08
OC(CN(Cc1ccccc1)Cc1ccncc1)c1cccs1 (configuration not stated)	19.75	1.554
CC1(C(=O)N2CCC(n3cc(C4(O)CCCC4)nn3)CC2)CCCCC1	-1.396	-1.882
CN(C)C[C@@H]1CN(C(=O)c2cc(-c3ccccc3)n[nH]2)C[C@@H]1CO	-11.68	1.726
CN(C)Cc1nc(C(C)(C)NC(=O)c2ccc3ccccc3c2)no1	-17.83 and 5.23	-5.029
CCCc1ncc(C(=O)N2CCOc3ncccc32)s1	15.66	-0.581 and -2.897
CNCC(=O)Nc1ccc(-c2cnc(NCCS(C)(=O)=O)nc2)cc1	-3.074	-11.39
O=C(CC1CC1)N1CCn2cc(Cn3cncn3)nc2C1	23.64	16.65
CCOc1ccnc(N2CCN(C(=O)c3ccc(OC)cc3)CC2)n1	22.39	-10.11
Cn1cc(N2CCCC(Nc3ccc4c(c3)CCC(=O)N4)C2=O)cn1 (configuration not stated)	0.6708	0.7696
CC(C)CN1CCc2[nH]cnc2C12CCN(C(=O)c1cccnc1)CC2	-27.6	-12.83
CC(Cn1cccn1)NC(=O)Nc1ccc(N2CCCC2)nc1 (configuration not stated)	-28.39	-21.51
Cl.Cl.[H][C@@]12CC[C@H](COCc3csc(C)n3)O[C@]1([H])CCN2	-0.7686 and 3.867	12.98
COc1ccc(CN(C)C(=O)CN2CC(n3cc(C)cn3)C2)cc1F	18.16	28.73
Cc1csc(CNc2cnn(CC(F)(F)F)c2)n1	0.06867	-1.759
O=C(O)C(F)(F)F.[H][C@@]12CN(CC)C[C@]1(C(=O)N(C)C)CCC21CCN(C(=O)NC(C)C)CC1	-10.65	-6.557
NC(=O)CSc1nnc2n1N=CN(c1ccccc1F)C2	-5.375 and 0.4775	-5.553
Cn1ncc2c1C(COCC1CC1)CN(Cc1cccnc1)C2 (configuration not stated)	-1.608 and 11.16	2.447 and -5.136
CCS(=O)(=O)NCCCNc1cc(N2CCCC2CO)ncn1 (configuration not stated)	-4.86	-8.024
Cc1cc(C(=O)N2CCNC(=O)C2)c(C)n1CC(F)(F)F	1.202 and -12.78	-12.54
NCC(=O)N1CCCC1c1ccc(C(=O)NCc2ccoc2)s1 (configuration not stated)	11.45	3.91
Cc1nc(C)c(C(C)NCc2c(C(C)C)nn(C)c2N(C)C)s1 (configuration not stated)	8.19	-9.305 and -10.72
Cc1ccnn1CCC(=O)N1CCOC(CCc2ccccc2)C1 (configuration not stated)	12.16	12.5
Cc1cnc(C(=O)N2CCC(COCc3ccccc3)C2)cn1 (configuration not stated)	5.413	16.21
CCn1ncc2c1NC(=O)CC2c1cnc(NCc2ccccc2)nc1 (configuration not stated)	-43.27	-4.044
Cc1ccc(NC(=O)c2cc3c(=O)n(C)c(=O)n(C)c3nc2C)cc1Cl	-2.406	6.431
CCc1nn(C)c(Cl)c1CN1CCCC2(C1)CN(C)C(=O)O2 (configuration not stated)	20.78	2.161
C[S+]([O-])c1cccc(NC(=O)N[C@H](CCO)c2ccccc2)c1 (some centres not stated)	-15.7	3.519
COC(=O)C(NC(=O)c1ccc(C)cc1C)c1cccnc1 (configuration not stated)	1.61 and 2.993	-14.13
O=C1NCCN(C(=O)c2cn3ccsc3n2)C1Cc1ccccc1 (configuration not stated)	-15.41	-4.475
Cc1cc(C)n(-c2cncc(N3CCN(C(=O)CN(C)C)CC3)n2)n1	-29.31 and -0.4942	-3.317
O=C(O)C(F)(F)F.[H][C@@]12COC[C@H](NS(C)(=O)=O)[C@]1([H])CN(Cc1ccc(CC)o1)C2	4.214	-11.08
O=C(CS(=O)(=O)Cc1ccccc1)NC1CCCCNC1=O (configuration not stated)	-8.586	-34.14
COCC(=O)NC(C)c1cccc(Br)c1 (configuration not stated)	23.98	23.04
CN(Cc1cnn(C)c1)C(=O)C1CCCN1Cc1ccccn1 (configuration not stated)	-11	-18.56
O=C(c1ccncc1F)N1CCOC(c2cccc(O)c2)C1 (configuration not stated)	8.132	3.628
[H][C@]12CC[C@@]3(N=C(c4ccccc4)NC3=O)[C@@]1([H])CN(C(=O)NCC(C)C)C2	8.112 and 20.45	-10.56
Cc1cc(NC2CCC(=O)N(C)C2)n2nccc2n1 (configuration not stated)	12.46	73.77
COCCN(C)C[C@@H]1CN(C(=O)c2ccc(SC)cc2)C[C@@H]1CO	-22.12	-30.38
COCCc1noc(CN2CCC3(CCCO3)CCC2=O)n1 (configuration not stated)	-21.71	-0.03841 and -14.52
O=C(O)C(F)(F)F.[H][C@@]12CCN(c3nnc(C)s3)C[C@@]1([H])O[C@@H](C(=O)N(C)C)C2	-29.82	-9.034 and -19.95
Cc1ccc(CNC(=O)Nc2nccs2)cn1	2.206	-4.116
CCN(CC(=O)NCc1nc(C2CC2)no1)Cc1ccc(Cl)cc1	12.24	23.73
Cc1cc(OC(F)F)c(C(=O)N2CCC(N(C)C)CC2)s1	-7.082 and -27.26	-18.51
O=C(c1cnc(C2CC2)s1)N1CCCC1Cn1cccn1 (configuration not stated)	-0.3241	8.805
O=C(O)C(F)(F)F.O=C(c1cnccn1)N1CCCC2(CCN(c3ncccn3)C2)C1 (configuration not stated)	-6.197	-18.5
CN(CCO)Cc1cc(Cl)ccc1OCC(O)CN1CCCCCC1 (configuration not stated)	42.42	4.468
CCN1CC2(CC1=O)CN(C(=O)COC)CCN(S(C)(=O)=O)C2 (configuration not stated)	1.337 and -3.499	22.55
C[C@@H]1CN(C(=O)CCc2nncn2C)CC[C@@]1(O)C1CCC1	-17.34	13.05
Cc1c(S(=O)(=O)NC2CC2)cc2c(C)cc(=O)n3c2c1CCC3	-18.1	-34.3
Cc1c[nH]nc1C1CCCN(c2cnccn2)C1 (configuration not stated)	0.5553	1.602 and 0.2114
COc1cccc(-c2cnc(C3CCNCC3)cn2)c1	4.483	-3.251
Cc1nc2c(c(N[C@@H](CO)C(N)=O)n1)Cc1ccccc1OC2	9.347	-4.043
Cc1cc(F)c(S(=O)(=O)N(C)CCn2cccn2)cc1F	11.76	10.17
CC(C)c1nccn1C1CCCN(C(=O)c2ccc3nncn3c2)C1 (configuration not stated)	6.13	-14.98
Cc1noc(CCNS(=O)(=O)N2CCCC2c2ccc(C)o2)n1 (configuration not stated)	5.98 and -2.847	16.6 and 4.427
CCCN1Cc2nc(N3CCCC3)ncc2C1=O	-14	-19.18
CN(C)CCCn1cnc2cc(NC(=O)c3n[nH]c4c3CCC4)ccc21	3.474 and 14.11	16.21
CSCCC(=O)N1CCCC(c2nccn2Cc2ccncc2)C1 (configuration not stated)	13.76	-0.7227 and -4.606
[H][C@@]12CNCC[C@]1(O)CCN(C(=O)Cc1cc(F)ccc1C)C2	23.56	-1.097
[H][C@@]12OCCN(C(=O)C3=CCCC3)[C@@]1([H])CC[C@@H]2OC	-10.5 and -28.84	-24.86
CCc1nc(CCNC(=O)Nc2cccc(C(=O)NC)c2C)cs1	-28.87	-13.28 and -23.85
CC(C)(C)c1nnc(CN2CCCC2Cn2cncn2)o1 (configuration not stated)	-11.11	-7.926
CC(C)c1ccc(CN2CCCC3(CC2)CN(C)C(=O)O3)cc1 (configuration not stated)	7.195	7.639
Cc1nc(C)n(CC2CCCN2CCC(=O)NC2CCCC2)n1 (configuration not stated)	3.371	-4.854

For reference, 7 entries once more:

- [H][C@]12CC[C@@]3(N=C(c4ccccc4)NC3=O)[C@@]1([H])CN(C(=O)NCC(C)C)C2 | Mtb glucose medium: 8.112% and 20.45%; Mtb cholesterol medium: -10.56%
- COC(=O)C(NC(=O)c1ccc(C)cc1C)c1cccnc1 (configuration not stated) | Mtb glucose medium: 1.61% and 2.993%; Mtb cholesterol medium: -14.13%
- O=C(CC1CC1)N1CCn2cc(Cn3cncn3)nc2C1 | Mtb glucose medium: 23.64%; Mtb cholesterol medium: 16.65%
- CSCCC(=O)N1CCCC(c2nccn2Cc2ccncc2)C1 (configuration not stated) | Mtb glucose medium: 13.76%; Mtb cholesterol medium: -0.7227% and -4.606%
- Cc1nc(C)c(C(C)NCc2c(C(C)C)nn(C)c2N(C)C)s1 (configuration not stated) | Mtb glucose medium: 8.19%; Mtb cholesterol medium: -9.305% and -10.72%
- Cc1ccc(NC(=O)c2cc3c(=O)n(C)c(=O)n(C)c3nc2C)cc1Cl | Mtb glucose medium: -2.406%; Mtb cholesterol medium: 6.431%
- Cc1cc(NC2CCC(=O)N(C)C2)n2nccc2n1 (configuration not stated) | Mtb glucose medium: 12.46%; Mtb cholesterol medium: 73.77%